The supplement of paper PMC10849652
The list shows a part of the results.

By UniProt entry, the sequences of proteins in these tests, tags left out. Where a name states a change or a piece, a line headed by the entry shows the natural chain unless it says otherwise.
UniProt P21283, whole entry, looked up: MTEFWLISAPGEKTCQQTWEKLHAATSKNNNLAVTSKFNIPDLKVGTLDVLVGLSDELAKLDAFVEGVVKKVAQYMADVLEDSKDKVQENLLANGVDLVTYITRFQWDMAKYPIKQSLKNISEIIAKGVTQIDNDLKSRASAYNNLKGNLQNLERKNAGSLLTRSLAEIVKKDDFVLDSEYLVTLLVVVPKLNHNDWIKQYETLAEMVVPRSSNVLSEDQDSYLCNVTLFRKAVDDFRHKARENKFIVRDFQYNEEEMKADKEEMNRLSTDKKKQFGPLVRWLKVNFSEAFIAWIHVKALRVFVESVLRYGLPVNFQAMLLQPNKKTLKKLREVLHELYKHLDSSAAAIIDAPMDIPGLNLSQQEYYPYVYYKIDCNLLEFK
UniProt P17544: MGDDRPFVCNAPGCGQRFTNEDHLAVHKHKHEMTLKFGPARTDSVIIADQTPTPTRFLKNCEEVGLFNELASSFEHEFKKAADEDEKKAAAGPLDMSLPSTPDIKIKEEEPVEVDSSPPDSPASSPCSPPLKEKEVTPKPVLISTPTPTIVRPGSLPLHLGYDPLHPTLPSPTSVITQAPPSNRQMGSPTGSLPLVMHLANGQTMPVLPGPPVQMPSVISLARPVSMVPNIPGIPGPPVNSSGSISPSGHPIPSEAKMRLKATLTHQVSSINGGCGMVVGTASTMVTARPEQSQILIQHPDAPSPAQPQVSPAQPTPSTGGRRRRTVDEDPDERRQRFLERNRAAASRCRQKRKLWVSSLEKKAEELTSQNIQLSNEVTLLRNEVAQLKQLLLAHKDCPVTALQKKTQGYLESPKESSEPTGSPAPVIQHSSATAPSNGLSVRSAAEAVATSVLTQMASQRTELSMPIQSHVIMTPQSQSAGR
UniProt Q8WYN0: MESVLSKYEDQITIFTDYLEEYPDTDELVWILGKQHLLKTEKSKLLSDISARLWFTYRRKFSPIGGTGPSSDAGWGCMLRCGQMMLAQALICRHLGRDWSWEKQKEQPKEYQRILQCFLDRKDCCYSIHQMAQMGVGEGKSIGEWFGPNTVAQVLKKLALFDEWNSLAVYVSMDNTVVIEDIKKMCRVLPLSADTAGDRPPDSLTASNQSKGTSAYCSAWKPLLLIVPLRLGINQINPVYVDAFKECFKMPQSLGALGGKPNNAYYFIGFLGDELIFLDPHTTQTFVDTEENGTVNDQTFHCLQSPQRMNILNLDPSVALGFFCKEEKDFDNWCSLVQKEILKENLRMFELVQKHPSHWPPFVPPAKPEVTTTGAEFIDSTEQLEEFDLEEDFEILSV
UniProt Q9H1I8: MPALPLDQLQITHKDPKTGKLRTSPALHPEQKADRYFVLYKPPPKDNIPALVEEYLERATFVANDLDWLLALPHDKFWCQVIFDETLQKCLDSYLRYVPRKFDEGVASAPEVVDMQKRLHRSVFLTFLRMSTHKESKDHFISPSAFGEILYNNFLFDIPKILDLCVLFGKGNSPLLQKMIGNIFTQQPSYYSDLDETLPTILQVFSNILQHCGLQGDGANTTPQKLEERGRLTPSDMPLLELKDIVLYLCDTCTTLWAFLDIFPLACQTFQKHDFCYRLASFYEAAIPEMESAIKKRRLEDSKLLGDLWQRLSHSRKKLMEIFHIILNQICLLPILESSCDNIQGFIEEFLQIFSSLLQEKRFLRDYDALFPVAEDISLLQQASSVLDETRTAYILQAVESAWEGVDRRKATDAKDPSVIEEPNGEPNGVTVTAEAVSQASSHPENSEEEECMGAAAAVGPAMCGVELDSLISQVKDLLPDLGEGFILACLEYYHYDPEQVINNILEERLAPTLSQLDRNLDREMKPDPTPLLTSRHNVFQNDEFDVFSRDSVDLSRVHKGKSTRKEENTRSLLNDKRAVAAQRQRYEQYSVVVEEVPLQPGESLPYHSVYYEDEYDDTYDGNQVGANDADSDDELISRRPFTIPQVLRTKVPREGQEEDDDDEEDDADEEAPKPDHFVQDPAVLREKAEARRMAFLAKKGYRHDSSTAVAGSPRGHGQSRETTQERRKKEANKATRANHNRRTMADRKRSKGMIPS
UniProt Q13315: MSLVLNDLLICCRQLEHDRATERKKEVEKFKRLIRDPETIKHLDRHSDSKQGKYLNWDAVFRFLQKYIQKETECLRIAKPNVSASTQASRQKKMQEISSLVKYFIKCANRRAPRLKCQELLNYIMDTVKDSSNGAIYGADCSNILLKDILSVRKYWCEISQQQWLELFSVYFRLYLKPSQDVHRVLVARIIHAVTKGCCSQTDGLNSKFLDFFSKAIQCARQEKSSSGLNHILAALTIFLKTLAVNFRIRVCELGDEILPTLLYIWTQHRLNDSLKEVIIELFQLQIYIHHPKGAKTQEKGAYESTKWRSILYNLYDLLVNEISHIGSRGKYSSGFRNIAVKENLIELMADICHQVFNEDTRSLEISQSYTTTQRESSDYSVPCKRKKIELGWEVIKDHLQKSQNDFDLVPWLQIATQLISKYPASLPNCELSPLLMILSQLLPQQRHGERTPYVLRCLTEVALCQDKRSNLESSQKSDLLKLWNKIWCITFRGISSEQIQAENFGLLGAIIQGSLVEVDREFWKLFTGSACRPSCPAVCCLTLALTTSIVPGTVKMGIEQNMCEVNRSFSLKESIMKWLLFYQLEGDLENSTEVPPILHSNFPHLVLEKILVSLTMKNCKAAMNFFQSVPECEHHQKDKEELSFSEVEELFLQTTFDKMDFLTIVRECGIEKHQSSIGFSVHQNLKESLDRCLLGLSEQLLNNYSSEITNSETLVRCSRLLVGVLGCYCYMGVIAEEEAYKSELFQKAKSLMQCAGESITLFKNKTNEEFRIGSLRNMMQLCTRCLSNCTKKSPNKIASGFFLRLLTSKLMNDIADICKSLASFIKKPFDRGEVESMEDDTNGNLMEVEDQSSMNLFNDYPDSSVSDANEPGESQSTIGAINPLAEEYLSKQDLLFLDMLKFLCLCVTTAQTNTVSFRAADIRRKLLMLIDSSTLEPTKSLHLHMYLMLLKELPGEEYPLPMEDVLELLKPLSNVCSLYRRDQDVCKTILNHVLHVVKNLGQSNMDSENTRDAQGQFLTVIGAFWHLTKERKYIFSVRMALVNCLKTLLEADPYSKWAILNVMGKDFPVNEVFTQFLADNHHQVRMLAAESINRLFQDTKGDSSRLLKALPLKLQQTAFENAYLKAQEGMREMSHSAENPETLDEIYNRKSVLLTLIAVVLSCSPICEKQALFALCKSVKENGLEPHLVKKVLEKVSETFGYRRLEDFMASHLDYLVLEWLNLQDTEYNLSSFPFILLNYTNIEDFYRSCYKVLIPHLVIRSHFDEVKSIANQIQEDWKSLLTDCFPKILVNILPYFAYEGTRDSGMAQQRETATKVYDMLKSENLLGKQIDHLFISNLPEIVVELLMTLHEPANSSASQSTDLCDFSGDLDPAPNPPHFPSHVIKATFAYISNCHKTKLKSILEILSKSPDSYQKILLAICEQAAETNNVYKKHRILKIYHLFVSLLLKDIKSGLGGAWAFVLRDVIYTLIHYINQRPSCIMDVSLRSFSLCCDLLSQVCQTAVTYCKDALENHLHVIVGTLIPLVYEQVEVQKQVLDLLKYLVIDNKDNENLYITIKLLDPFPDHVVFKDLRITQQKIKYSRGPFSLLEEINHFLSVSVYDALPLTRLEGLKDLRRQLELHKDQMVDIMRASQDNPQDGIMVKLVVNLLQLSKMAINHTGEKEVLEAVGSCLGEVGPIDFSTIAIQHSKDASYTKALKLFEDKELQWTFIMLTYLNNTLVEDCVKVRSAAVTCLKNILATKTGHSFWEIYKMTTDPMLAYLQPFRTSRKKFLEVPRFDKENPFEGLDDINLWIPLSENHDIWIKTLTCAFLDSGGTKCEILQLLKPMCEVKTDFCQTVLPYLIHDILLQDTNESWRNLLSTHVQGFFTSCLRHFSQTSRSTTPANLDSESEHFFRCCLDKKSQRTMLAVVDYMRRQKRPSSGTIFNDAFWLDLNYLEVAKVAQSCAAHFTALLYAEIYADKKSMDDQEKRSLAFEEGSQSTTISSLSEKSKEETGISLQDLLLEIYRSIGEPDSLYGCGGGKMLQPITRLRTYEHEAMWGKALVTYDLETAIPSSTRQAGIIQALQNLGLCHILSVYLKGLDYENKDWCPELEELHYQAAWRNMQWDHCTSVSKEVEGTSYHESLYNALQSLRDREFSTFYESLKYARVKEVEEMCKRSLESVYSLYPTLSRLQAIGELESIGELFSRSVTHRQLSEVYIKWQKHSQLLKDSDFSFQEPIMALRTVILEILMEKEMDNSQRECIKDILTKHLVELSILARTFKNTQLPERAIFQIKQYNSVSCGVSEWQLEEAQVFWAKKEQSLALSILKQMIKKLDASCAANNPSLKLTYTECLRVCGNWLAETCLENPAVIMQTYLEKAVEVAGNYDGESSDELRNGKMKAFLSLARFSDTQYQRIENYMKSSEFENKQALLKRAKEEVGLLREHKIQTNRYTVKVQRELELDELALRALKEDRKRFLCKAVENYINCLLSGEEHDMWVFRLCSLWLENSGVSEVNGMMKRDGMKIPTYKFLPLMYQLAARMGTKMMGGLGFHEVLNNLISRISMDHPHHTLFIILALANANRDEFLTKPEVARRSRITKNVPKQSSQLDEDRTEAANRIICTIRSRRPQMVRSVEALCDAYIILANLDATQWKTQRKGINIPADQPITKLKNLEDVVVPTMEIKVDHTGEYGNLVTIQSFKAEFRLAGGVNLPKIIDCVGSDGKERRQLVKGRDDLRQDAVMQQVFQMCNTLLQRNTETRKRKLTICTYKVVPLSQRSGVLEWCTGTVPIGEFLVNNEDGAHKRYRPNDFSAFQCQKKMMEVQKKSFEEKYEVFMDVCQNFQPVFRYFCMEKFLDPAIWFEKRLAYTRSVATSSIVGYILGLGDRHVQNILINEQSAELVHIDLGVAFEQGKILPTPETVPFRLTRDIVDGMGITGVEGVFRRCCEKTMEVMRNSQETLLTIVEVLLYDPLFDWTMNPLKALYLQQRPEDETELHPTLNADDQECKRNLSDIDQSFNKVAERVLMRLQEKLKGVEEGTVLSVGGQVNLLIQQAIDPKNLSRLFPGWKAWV
UniProt Q9UBL3, whole entry, looked up: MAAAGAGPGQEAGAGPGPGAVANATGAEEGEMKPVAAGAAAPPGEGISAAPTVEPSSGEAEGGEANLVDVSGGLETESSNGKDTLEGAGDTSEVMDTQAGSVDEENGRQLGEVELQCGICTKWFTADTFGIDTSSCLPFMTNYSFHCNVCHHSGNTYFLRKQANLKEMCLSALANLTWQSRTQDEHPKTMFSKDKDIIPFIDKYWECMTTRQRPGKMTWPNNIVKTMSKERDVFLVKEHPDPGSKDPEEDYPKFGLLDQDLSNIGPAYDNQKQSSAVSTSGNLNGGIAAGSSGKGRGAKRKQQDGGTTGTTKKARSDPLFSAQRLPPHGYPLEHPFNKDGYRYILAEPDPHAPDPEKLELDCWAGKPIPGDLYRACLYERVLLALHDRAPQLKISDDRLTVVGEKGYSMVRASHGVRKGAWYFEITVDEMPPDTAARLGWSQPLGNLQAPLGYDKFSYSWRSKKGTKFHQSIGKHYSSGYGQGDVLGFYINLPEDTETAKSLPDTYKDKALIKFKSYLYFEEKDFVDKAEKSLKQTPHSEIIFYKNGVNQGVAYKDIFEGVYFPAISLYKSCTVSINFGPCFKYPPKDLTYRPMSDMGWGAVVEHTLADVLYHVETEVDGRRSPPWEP
UniProt Q7Z3C6: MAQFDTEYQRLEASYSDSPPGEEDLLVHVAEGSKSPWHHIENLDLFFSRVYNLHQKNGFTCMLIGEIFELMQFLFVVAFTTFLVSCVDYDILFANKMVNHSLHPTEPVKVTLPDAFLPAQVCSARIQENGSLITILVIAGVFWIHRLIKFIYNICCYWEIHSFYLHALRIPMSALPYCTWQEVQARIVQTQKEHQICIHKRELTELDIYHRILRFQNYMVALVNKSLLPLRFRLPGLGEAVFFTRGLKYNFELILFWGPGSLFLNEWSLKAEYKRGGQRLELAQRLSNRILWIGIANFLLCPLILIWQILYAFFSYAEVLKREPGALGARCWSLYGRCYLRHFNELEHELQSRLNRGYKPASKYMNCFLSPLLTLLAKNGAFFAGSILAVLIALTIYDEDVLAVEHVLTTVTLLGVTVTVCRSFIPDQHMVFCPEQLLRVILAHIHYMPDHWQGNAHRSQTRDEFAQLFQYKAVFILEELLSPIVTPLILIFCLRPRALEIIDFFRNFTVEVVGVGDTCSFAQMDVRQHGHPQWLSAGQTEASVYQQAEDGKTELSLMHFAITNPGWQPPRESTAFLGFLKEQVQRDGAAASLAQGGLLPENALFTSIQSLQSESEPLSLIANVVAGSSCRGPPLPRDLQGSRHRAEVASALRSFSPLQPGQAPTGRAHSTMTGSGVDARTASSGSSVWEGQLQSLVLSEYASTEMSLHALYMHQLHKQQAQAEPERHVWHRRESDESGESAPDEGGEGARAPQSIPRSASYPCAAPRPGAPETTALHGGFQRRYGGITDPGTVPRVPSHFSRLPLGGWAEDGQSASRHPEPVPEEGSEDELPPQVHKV

Assays:
Assay in all cases: log2 fold change, soluble protein after heating vs DMSO (PISA); higher = thermal stabilisation; K562 lysate, 10 uM; active = over 0.2 and 3.5 SD of the protein, either way, in both replicates (recomputed)
erlotinib = compound: C#Cc1cccc(Nc2ncnc3cc(OCCOC)c(OCCOC)cc23)c1 [erlotinib]
Summary of the method: (§1)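 K562 pellets were dounce-homogenised in PBS pH 7.4 containing 1 mM MgCl2, and the crude extract, at 1 mg/mL protein, was exposed to 10 μM compound for 30 min. Aliquots were heated for 3 min across 48°C-58°C, pooled, brought to 0.5% NP-40 at 4°C and spun at 21,000xg for 90 min, with the supernatant taken as soluble protein. TMTpro 16plex LC-MS/MS with equalised channel sums quantified that protein. Values are log-two fold changes in thermal stability relative to solvent controls, taken from duplicates.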

[1] = compound: C/C(=N\NC(=O)C1=CC(=CC=C1)S(=O)(=O)N2CCOCC2)/C3=C(C=CC(=C3)Cl)O
Summary of the method: as §1

[2] = compound: C1=CC(=CC=C1C2=NC3=C(N2)C=C(C=C3)C(=O)N)OC4=CC=C(C=C4)Cl
Summary of the method: as §1

[3] = compound: C1=CC2=C(C=CC(=C2)/C=C\3/C(=O)NC(=NCC4=CC=CS4)S3)N=C1
Summary of the method: as §1

[4] = compound: C1=CC2=NC=CN=C2C=C1/C=C/3\C(=O)NC(=O)S3
Summary of the method: as §1

[5] = compound: C1=CC=C(C=C1)C2=NC(=C(N2)C3=CC=NC=C3)C4=CC(=C(C=C4)Cl)O
Summary of the method: as §1

[6] = compound: C1=CC=C2C(=C1)C3=NNC4=CC=CC(=C43)C2=O
Summary of the method: as §1

[7] = compound: C1CCN(C1)C(=O)NC2=CC=CC(=C2)NC3=NC=C(C(=N3)NCCC4=CN=CN4)Br
Summary of the method: as §1

[8] = compound: C1CN(CCC1(CC2=CC=C(C=C2)Cl)N)C3=NC=NC4=C3C=CN4
Summary of the method: as §1

IRAK-1-4 Inhibitor I = compound: C1COCCN1CCN2C3=CC=CC=C3N=C2NC(=O)C4=CC(=CC=C4)[N+](=O)[O-] [IRAK-1-4 Inhibitor I]
Summary of the method: as §1

ibrutinib = compound: C=CC(=O)N1CCC[C@@H](n2nc(-c3ccc(Oc4ccccc4)cc3)c3c(N)ncnc32)C1 [ibrutinib]
Summary of the method: as §1

[9] = compound: CC(=O)c1cnc2ccc(-c3cc(Cl)c(O)c(Cl)c3)nc2c1N[C@H]1CC[C@H](CN(C)C)CC1
Summary of the method: as §1

ralimetinib = compound: CC(C)(C)Cn1c(N)nc2ccc(-c3[nH]c(C(C)(C)C)nc3-c3ccc(F)cc3)nc21 [ralimetinib]
Summary of the method: as §1

[10] = compound: CC(C)(O)CC(=O)NCCn1ccc2ncnc(Nc3ccc(Oc4cccc(C(F)(F)F)c4)c(Cl)c3)c21
Summary of the method: as §1

[11] = compound: CC(C)C1=C2N=C(C=C(N2N=C1)NCC3=CC=CC=C3)NCCCCCCN
Summary of the method: as §1

[12] = compound: CC1=C(C(CC(=O)N1)C2=CC=C(C=C2)C(F)(F)F)C(=O)NC3=C(C=C4C(=C3)C=NN4)F
Summary of the method: as §1

[13] = compound: CC1=C(C2=C(C=C1)C(=O)C3=CC=CC=C3N2CCCN)C
Summary of the method: as §1

[14] = compound: CC1=C(C=C(C=C1)NC(=O)C2=CC(=CC=C2)C(C)(C)C#N)NC3=CC4=C(C=C3)N=CN(C4=O)C
Summary of the method: as §1

[15] = compound: CC1=C(C=C(C=C1)NC(=O)C2=CC(=CC=C2)N(C)C)NC(=O)C3=CC=C(C=C3)O
Summary of the method: as §1

[16] = compound: CC1=CC=C(C=C1)SC2=C3C=C(SC3=CN=C2)C(=O)N
Summary of the method: as §1

Row | Target | log2 fold change (erlotinib) | log2 fold change [1] | log2 fold change [2] | log2 fold change [3] | log2 fold change [4] | log2 fold change [5] | log2 fold change [6] | log2 fold change [7] | log2 fold change [8] | log2 fold change (IRAK-1-4 Inhibitor I) | log2 fold change (ibrutinib) | log2 fold change [9] | log2 fold change (ralimetinib) | log2 fold change [10] | log2 fold change [11] | log2 fold change [12] | log2 fold change [13] | log2 fold change [14] | log2 fold change [15] | log2 fold change [16]
1 | ATP5IF1 (UniProt Q9UII2) | inactive: -0.004 | inactive: 0.018 | inactive: 0.018 | inactive: -0.028 | inactive: -0.013 | inactive: 0 | inactive: 0.041 | inactive: -0.029 | inactive: 0.046 | inactive: 0.005 | inactive: 0.059 | inactive: -0.017 | inactive: -0.082 | inactive: -0.05 | inactive: 0.007 | inactive: -0.024 | inactive: 0.001 | inactive: -0.019 | inactive: -0.015 | inactive: -0.023
2 | ATP6V1C1 (UniProt P21283) | inactive: 0.003 | inactive: 0.001 | inactive: -0.005 | inactive: -0.006 | inactive: -0.011 | inactive: -0.014 | inactive: 0.012 | inactive: 0.001 | inactive: -0.001 | inactive: -0.026 | inactive: 0.011 | inactive: 0 | inactive: 0.007 | inactive: -0.016 | inactive: -0.022 | inactive: -0.02 | inactive: 0.006 | inactive: 0.025 | inactive: 0.014 | inactive: 0.001
3 | ASDURF (UniProt L0R819) | inactive: -0.078 | inactive: -0.116 | inactive: 0.033 | inactive: 0.039 | inactive: 0.028 | inactive: -0.004 | inactive: 0.016 | inactive: -0.002 | inactive: -0.039 | inactive: -0.009 | inactive: -0.014 | inactive: -0.005 | inactive: -0.001 | inactive: -0.002 | inactive: -0.05 | inactive: -0.003 | inactive: -0.055 | inactive: -0.024 | inactive: 0.055 | inactive: -0.002
4 | ATL3 (UniProt Q6DD88) | inactive: -0.017 | inactive: 0.035 | inactive: 0.082 | inactive: 0.03 | inactive: -0.001 | inactive: -0.052 | inactive: -0.008 | inactive: 0.006 | inactive: 0.072 | inactive: -0.004 | inactive: -0.042 | inactive: -0.012 | inactive: 0.027 | inactive: -0.003 | inactive: -0.003 | inactive: 0.013 | inactive: 0.007 | inactive: -0.017 | inactive: 0.037 | inactive: -0.021
5 | ATRIP (UniProt Q8WXE1) | inactive: -0.009 | inactive: 0.032 | inactive: -0.023 | inactive: 0.227 | inactive: 0.046 | inactive: 0.064 | inactive: 0.266 | inactive: -0.059 | inactive: -0.057 | inactive: 0.015 | inactive: 0.019 | inactive: 0.129 | inactive: -0.007 | inactive: -0.014 | inactive: -0.048 | inactive: 0.063 | inactive: 0.005 | inactive: -0.008 | inactive: -0.008 | inactive: -0.019
6 | ATF7 isoform 6 (UniProt P17544) | inactive: 0.003 | inactive: -0.146 | inactive: 0.035 | inactive: -0.074 | inactive: 0.066 | inactive: -0.057 | inactive: 0.115 | inactive: -0.007 | inactive: -0.086 | inactive: 0.045 | inactive: -0.065 | inactive: -0.06 | inactive: -0.056 | inactive: -0.023 | inactive: -0.042 | inactive: -0.058 | inactive: -0.144 | inactive: 0.06 | inactive: 0 | inactive: -0.015
7 | ATXN2 (UniProt Q99700) | inactive: 0.007 | inactive: -0.015 | inactive: 0.063 | inactive: -0.006 | inactive: -0.041 | inactive: -0.005 | inactive: -0.022 | inactive: 0.026 | inactive: 0.014 | inactive: 0.016 | inactive: -0.007 | inactive: -0.011 | inactive: -0.002 | inactive: 0 | inactive: 0.016 | inactive: 0.013 | inactive: -0.022 | inactive: -0.02 | inactive: 0.041 | inactive: -0.021
8 | ATG5 (UniProt Q9H1Y0) | inactive: -0.028 | inactive: -0.032 | inactive: 0.004 | inactive: 0.011 | inactive: -0.006 | inactive: 0.008 | inactive: 0.018 | inactive: -0.002 | inactive: 0.004 | inactive: -0.005 | inactive: 0.049 | inactive: 0 | inactive: 0.022 | inactive: 0.008 | inactive: -0.009 | inactive: 0.028 | inactive: 0.007 | inactive: 0.008 | inactive: -0.008 | inactive: -0.012
9 | ATG4B (UniProt Q9Y4P1) | inactive: 0.012 | inactive: 0.002 | inactive: -0.022 | inactive: -0.024 | inactive: 0.028 | inactive: -0.019 | inactive: -0.007 | inactive: 0.008 | inactive: -0.004 | inactive: 0.019 | inactive: 0.037 | inactive: 0.021 | inactive: 0.016 | inactive: -0.028 | inactive: -0.019 | inactive: -0.014 | inactive: 0.033 | inactive: 0.005 | inactive: 0.046 | inactive: 0.013
10 | ATG4A (UniProt Q8WYN0) | inactive: 0.031 | inactive: -0.087 | inactive: -0.055 | inactive: -0.01 | inactive: 0.007 | inactive: 0.01 | inactive: -0.023 | inactive: -0.015 | inactive: 0.038 | inactive: -0.001 | inactive: 0.032 | inactive: -0.006 | inactive: 0.011 | inactive: -0.051 | inactive: -0.055 | inactive: -0.006 | inactive: -0.004 | inactive: 0.053 | inactive: 0.021 | inactive: -0.014
11 | ASCC2 (UniProt Q9H1I8) | inactive: 0.04 | inactive: -0.106 | inactive: -0.077 | inactive: 0.083 | inactive: 0.029 | inactive: -0.016 | inactive: -0.048 | inactive: -0.054 | inactive: 0.037 | inactive: -0.042 | active: -0.328 | inactive: 0.029 | inactive: 0.057 | inactive: -0.041 | inactive: 0.012 | inactive: 0.004 | inactive: 0.02 | inactive: 0.01 | inactive: 0.064 | inactive: -0.01
12 | ATP9B (UniProt O43861) | inactive: 0.008 | inactive: -0.057 | inactive: 0.034 | inactive: 0.175 | inactive: -0.07 | inactive: 0.031 | inactive: 0.081 | inactive: 0.027 | inactive: -0.103 | inactive: -0.037 | inactive: -0.156 | inactive: 0.08 | inactive: -0.044 | inactive: -0.053 | inactive: -0.021 | inactive: 0.225 | inactive: 0.049 | inactive: 0 | inactive: 0.079 | inactive: -0.054
13 | ATM (UniProt Q13315) | inactive: 0.02 | inactive: -0.031 | inactive: -0.02 | inactive: -0.064 | inactive: -0.052 | inactive: -0.001 | inactive: 0.043 | inactive: -0.016 | inactive: -0.042 | inactive: 0.007 | inactive: 0.027 | active: 0.253 | inactive: 0.013 | inactive: -0.021 | inactive: 0.04 | inactive: 0.002 | inactive: -0.027 | inactive: -0.014 | inactive: -0.015 | inactive: -0.013
14 | ATG2B (UniProt Q96BY7) | inactive: -0.001 | inactive: 0.048 | inactive: -0.042 | inactive: -0.022 | inactive: 0.01 | inactive: -0.013 | inactive: -0.002 | inactive: 0.007 | inactive: 0.017 | inactive: 0.017 | inactive: 0.003 | inactive: 0.013 | inactive: 0.036 | inactive: -0.057 | inactive: -0.016 | inactive: 0.006 | inactive: 0.017 | inactive: 0.016 | inactive: 0 | inactive: -0.024
15 | ASH2L (UniProt Q9UBL3) | inactive: -0.006 | inactive: -0.004 | inactive: 0.002 | inactive: -0.015 | inactive: 0.001 | inactive: -0.007 | inactive: 0 | inactive: 0.004 | inactive: -0.015 | inactive: -0.021 | inactive: -0.032 | inactive: -0.004 | inactive: 0.02 | inactive: 0.034 | inactive: 0.008 | inactive: -0.007 | inactive: -0.012 | inactive: -0.002 | inactive: 0.012 | inactive: 0.006
16 | ATG9A (UniProt Q7Z3C6) | inactive: 0.021 | inactive: 0.028 | inactive: 0.022 | inactive: 0.073 | inactive: 0.026 | inactive: 0.002 | inactive: -0.033 | inactive: -0.113 | inactive: 0.015 | inactive: 0.004 | inactive: 0.024 | inactive: -0.006 | inactive: 0.024 | inactive: -0.054 | inactive: 0.003 | inactive: -0.022 | inactive: -0.042 | inactive: 0.008 | inactive: 0.046 | inactive: 0.022

Part of the list above, in markdown:

| Row | Target | log2 fold change (erlotinib) | log2 fold change [1] | log2 fold change [2] | log2 fold change [3] | log2 fold change [4] | log2 fold change [5] | log2 fold change [6] | log2 fold change [7] | log2 fold change [8] | log2 fold change (IRAK-1-4 Inhibitor I) | log2 fold change (ibrutinib) | log2 fold change [9] | log2 fold change (ralimetinib) | log2 fold change [10] | log2 fold change [11] | log2 fold change [12] | log2 fold change [13] | log2 fold change [14] | log2 fold change [15] | log2 fold change [16] |
| --- | --- | --- | --- | --- | --- | --- | --- | --- | --- | --- | --- | --- | --- | --- | --- | --- | --- | --- | --- | --- | --- |
| 6 | ATF7 isoform 6 (UniProt P17544) | inactive: 0.003 | inactive: -0.146 | inactive: 0.035 | inactive: -0.074 | inactive: 0.066 | inactive: -0.057 | inactive: 0.115 | inactive: -0.007 | inactive: -0.086 | inactive: 0.045 | inactive: -0.065 | inactive: -0.06 | inactive: -0.056 | inactive: -0.023 | inactive: -0.042 | inactive: -0.058 | inactive: -0.144 | inactive: 0.06 | inactive: 0 | inactive: -0.015 |
| 15 | ASH2L (UniProt Q9UBL3) | inactive: -0.006 | inactive: -0.004 | inactive: 0.002 | inactive: -0.015 | inactive: 0.001 | inactive: -0.007 | inactive: 0 | inactive: 0.004 | inactive: -0.015 | inactive: -0.021 | inactive: -0.032 | inactive: -0.004 | inactive: 0.02 | inactive: 0.034 | inactive: 0.008 | inactive: -0.007 | inactive: -0.012 | inactive: -0.002 | inactive: 0.012 | inactive: 0.006 |
